Data from patent US20160039903A1 (Stanford University, published 2016).
These are yes or no findings as the source states them, for the method shown. Some entries that bind do so weakly or less than the wild type.

By UniProt entry, the sequences of proteins in these tests, tags left out. Residues count along the entry.
UniProt Q9EP73, residues 19-132: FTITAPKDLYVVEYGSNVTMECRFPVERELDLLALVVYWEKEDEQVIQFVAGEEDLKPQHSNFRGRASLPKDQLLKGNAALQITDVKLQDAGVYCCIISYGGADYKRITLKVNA

Biological target: mouse PD-L1 displayed on yeast (mouse) (UniProt Q9EP73)
Test: competition flow cytometry on yeast displaying mouse PD-L1; competitor probe: labeled native PD-1 streptavidin tetramer

B1: wild-type human PD-1 IgV domain (residues 26-147), native PD-1 mimic polypeptide (receptor)
chain: DSPDRPWNPPTFSPALLVVTEGDNATFTCSFSNTSESFVLNWYRMSPSNQTDKLAAFPEDRSQPGQDCRFRVTQLPNGRDFHMSVVRARRNDSGTYLCGAISLAPKAQIKESLRAELRVTERHHHHHHHH
notes: Soluble monomer secreted from High Five insect cells; also called wild-type hPD-1; WT PD-1 monomer
binding: binds
